The text below walks through data of PMC6734322.

Amino acid sequences for entries named in this document (tags omitted). A change or cut given only in a name is not applied to a line headed by its entry.
UniProt A0A218MNI8: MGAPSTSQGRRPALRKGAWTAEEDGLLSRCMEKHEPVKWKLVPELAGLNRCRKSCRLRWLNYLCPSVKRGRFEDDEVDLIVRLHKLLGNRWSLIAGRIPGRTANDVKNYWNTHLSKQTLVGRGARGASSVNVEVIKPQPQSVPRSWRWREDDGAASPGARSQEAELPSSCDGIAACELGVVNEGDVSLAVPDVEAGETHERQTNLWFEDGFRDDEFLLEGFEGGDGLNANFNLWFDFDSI
UniProt A0A5A4HXD4: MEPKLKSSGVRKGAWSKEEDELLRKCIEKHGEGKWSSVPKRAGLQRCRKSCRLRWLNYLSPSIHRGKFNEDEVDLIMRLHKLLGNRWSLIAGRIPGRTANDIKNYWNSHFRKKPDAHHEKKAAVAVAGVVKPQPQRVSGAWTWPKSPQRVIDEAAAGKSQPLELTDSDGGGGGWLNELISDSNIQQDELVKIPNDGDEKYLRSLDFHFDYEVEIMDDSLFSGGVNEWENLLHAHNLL

The target in experiment [1] is YC/MabHLH1 (Muscari armeniacum). The experiment can be described thus: split reporter; BiFC with split YFP (pSPYNE (R) 173 and pSPYCE (M)); transformed Agrobacterium GV3101 cultures co-infiltrated into N. benthamiana leaves, 3 d in a light incubator, laser scanning confocal microscopy.
Experiment [2] concerns the target YN/MabHLH1 (Muscari armeniacum). Described as above.

These are yes or no findings as the source states them, for the method shown. Binding seen in cells or lysates may run through a third protein. Binding calls can cover weak binding; strength is not graded here.

For YN/MaAN2 (from UniProt A0A218MNI8), the binding entry in experiment [1] was “binds”.
In the case of YC/MaMybA (from UniProt A0A5A4HXD4), the binding entry in experiment [2] was “binds”.
